Experimental data reported in patent publication EP0983376B1, “SCREENING ASSAYS FOR AGENTS THAT ALTER INHIBITOR OF APOPTOSIS (IAP) PROTEIN REGULATION OF CASPASE ACTIVITY” (The Burnham Institute, priority 1997, dated 1998).
These are yes or no findings as the source states them, for the method shown. For some of these results: Binding calls can cover weak binding; strength is not graded here. Each block holds one molecule with its values, some of them ahead of it.

Chains of the proteins cited; added tags and fusions are not shown. Lines headed by an entry give the natural chain unless they say otherwise; changes in a name come on top.
UniProt P55212: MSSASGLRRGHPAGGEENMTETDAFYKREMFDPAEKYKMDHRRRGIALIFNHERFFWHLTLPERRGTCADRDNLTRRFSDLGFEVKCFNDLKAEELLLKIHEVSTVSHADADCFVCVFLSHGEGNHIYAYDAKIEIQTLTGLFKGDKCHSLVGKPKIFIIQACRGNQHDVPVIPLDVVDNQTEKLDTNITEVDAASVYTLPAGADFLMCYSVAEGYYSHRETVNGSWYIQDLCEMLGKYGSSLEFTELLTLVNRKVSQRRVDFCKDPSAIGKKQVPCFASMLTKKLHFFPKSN
UniProt P55210: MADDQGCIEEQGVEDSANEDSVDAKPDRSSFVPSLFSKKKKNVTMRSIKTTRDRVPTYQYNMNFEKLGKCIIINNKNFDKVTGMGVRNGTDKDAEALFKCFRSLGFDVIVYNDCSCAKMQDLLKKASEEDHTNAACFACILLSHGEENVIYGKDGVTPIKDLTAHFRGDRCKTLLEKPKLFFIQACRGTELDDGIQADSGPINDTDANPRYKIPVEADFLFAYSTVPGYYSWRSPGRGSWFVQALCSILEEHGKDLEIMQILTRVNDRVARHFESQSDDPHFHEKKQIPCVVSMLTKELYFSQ
UniProt P98170: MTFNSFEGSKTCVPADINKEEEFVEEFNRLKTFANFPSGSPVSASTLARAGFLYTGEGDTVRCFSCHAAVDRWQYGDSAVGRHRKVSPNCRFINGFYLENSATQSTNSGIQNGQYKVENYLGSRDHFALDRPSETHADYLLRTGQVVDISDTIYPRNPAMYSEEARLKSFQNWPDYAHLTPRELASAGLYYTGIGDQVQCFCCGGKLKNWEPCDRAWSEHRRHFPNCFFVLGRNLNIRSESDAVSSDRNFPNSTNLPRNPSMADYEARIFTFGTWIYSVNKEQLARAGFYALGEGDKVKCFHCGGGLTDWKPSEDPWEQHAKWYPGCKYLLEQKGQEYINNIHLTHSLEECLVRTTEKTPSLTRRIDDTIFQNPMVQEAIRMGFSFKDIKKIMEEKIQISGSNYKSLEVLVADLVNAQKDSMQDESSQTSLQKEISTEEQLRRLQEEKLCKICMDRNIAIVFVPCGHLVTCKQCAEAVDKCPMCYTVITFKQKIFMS

Assays:
[1] = molecular target: purified recombinant caspase-6 (His6-tagged) (UniProt P55212); experiment: condition: 3 µg GST-XIAP on beads; 0.5 µg purified caspase; GST pull-down on glutathione-SEPHAROSE, immunoblot
[2] = molecular target: purified recombinant active caspase-7 (His6-tagged) (UniProt P55210); experiment: glutathione-SEPHAROSE affinity chromatography
[3] = molecular target: purified recombinant active caspase-7 (His6-tagged) (UniProt P55210); experiment: opening sentence of Example IV
[4] = molecular target: purified recombinant active caspase-7 (His6-tagged) (UniProt P55210); experiment: condition: 6 µg GST-CD40 on beads; 0.5 µg purified caspase; GST pull-down on glutathione-SEPHAROSE, immunoblot
[5] = molecular target: purified recombinant caspase-6 (His6-tagged) (UniProt P55212); experiment: as above

Molecule: GST-XIAP fusion protein (X chromosome linked inhibitor of apoptosis, full length) (from UniProt P98170 1-497)
binding [1]: no binding

Molecule: GST-c-IAP-2 (from UniProt Q13489 1-604)
binding [2]: binds | binding [3]: binds

B2: GST-c-IAP-1(BIR) (other, human, UniProt Q13490 1-350, looked up)
chain: MHKTASQRLFPGPSYQNIKSIMEDSTILSDWTNSNKQKMKYDFSCELYRMSTYSTFPAGVPVSERSLARAGFYYTGVNDKVKCFCCGLMLDNWKLGDSPIQKHKQLYPSCSFIQNLVSASLGSTSKNTSPMRNSFAHSLSPTLEHSSLFSGSYSSLSPNPLNSRAVEDISSSRTNPYSYAMSTEEARFLTYHMWPLTFLSPSELARAGFYYIGPGDRVACFACGGKLSNWEPKDDAMSEHRRHFPNCPFLENSLETLRFSISNLSMQTHAARMRTFMYWPSSVPVQPEQLASAGFYYVGRNDDVKCFCCDGGLRCWESGDDPWVEHAKWFPRCEFLIRMKGQEFVDEIQG
notes: range 1-350; not shown: glutathione S-transferase encoded by vector pGEX4T; vector linker not described
binding [2]: binds

More lines, now with the values ahead:

binding [4]: no binding | binding [5]: no binding
B1: GST-CD40 cytosolic domain (other, UniProt P25942 216-277, looked up)
chain: KKVAKKPTNKAPHPKQEPQEINFPDDLPGSNTAAPVQETLHGCQPVTQEDGKESRISVQERQ
notes: domain: cytosolic domain; Control protein; not shown: glutathione S-transferase

binding [2]: binds
B3: GST-c-IAP-2(BIR) (other, human, UniProt Q13489 1-335, looked up)
chain: MNIVENSIFLSNLMKSANTFELKYDLSCELYRMSTYSTFPAGVPVSERSLARAGFYYTGVNDKVKCFCCGLMLDNWKRGDSPTEKHKKLYPSCRFVQSLNSVNNLEATSQPTFPSSVTNSTHSLLPGTENSGYFRGSYSNSPSNPVNSRANQDFSALMRSSYHCAMNNENARLLTFQTWPLTFLSPTDLAKAGFYYIGPGDRVACFACGGKLSNWEPKDNAMSEHLRHFPKCPFIENQLQDTSRYTVSNLSMQTHAARFKTFFNWPSSVLVNPEQLASAGFYYVGNSDDVKCFCCDGGLRCWESGDDPWVQHAKWFPRCEYLIRIKGQEFIRQVQ
notes: range 1-335; not shown: glutathione S-transferase encoded by vector pGEX4T; vector linker not described
